Source: patent US12466859B2, “Desmoglein 2 (DSG2) binding proteins and uses therefor” (UNIVERSITY OF WASHINGTON THROUGH ITS CENTER FOR …, priority 2013, dated 2025)
Numbering of substitutions follows the chain as printed. Some entries share one result that the patent states for a list of compounds.

B1: JO-1: dimeric protein that contains the wild-type Ad3 fiber knob and a self-dimerization domain (SEQ ID NO:27) (protein, listed as Homo sapiens)
chain: MKVSALKEKVSALKEKVSALKEKVSALKEKVSALKEGSGGGSGGGSGGGSNSIALKNNTLWTGPKPEANCIIEYGKQNPDSKLTLILVKNGGIVNGYVTLMGASDYVNTLFKNKNVSINVELYFDATGHILPDSSSLKTDLELKYKQTADFSARGFMPSTTAYPFVLPNAGTHNENYIFGQCYYKASDGALFPLEVTVMLNKRLPDSRTSYVMTFLWSLNAGLAPETTQATLITSPFTFSYIREDD
modifications: dimer
B2: JO-4 (protein)
chain: B1 chain with Y177F

Tested on: TC1-hDSG2 tumors
Assay: PLD therapy with repeated injection in immunocompetent mice with TC1-hDSG2 tumors
Format: in vivo
Conditions: immunocompetent hDSG2 transgenic mice
Procedure: FIG. 11A-11C. Pharmacokinetics, toxicity, and immunogenicity of JO-4. FIG. 11A) Serum clearance of JO-1 and JO-4. hDSG2 transgenic mice with subcutaneous TC1-hDSG2 tumors (˜600 mm^3) were intravenously injected with JO-1 or JO-4 (2 mg/kg) and serum samples were analyzed for by ELISA. N=3. Note that the y-axis has a log scale. FIG. 11B1) Lymphocyte and FIG. 11B2) platelet counts in hDSG2/TC1-hDSG2 transgenic mice after JO-1 or JO-4 injection. N=3. FIG. 11C) Therapy studies in immunocompetent hDSG2 transgenic mice with TC1-hDSG2 tumors. When tumors reached a volume of ˜80 mm^3, JO-1 or JO-4 (2 mg/kg) or PBS was injected intravenously followed one hour later by PLD/Doxil (i.v. 1.5 mg/kg). Treatment was repeated as indicated by arrows. Tumors were then allowed to re-grow for about two weeks. From day 15 on serum anti-JO-1/J)—4 antibodies were detectable by ELISA. Two more treatment cycles were performed at day 28 and day 35. […] The difference between JO-1/PLD vs JO-4/PLD is significant from day 31 on. N=10.
A549, MDA-MB-231, and ovc316 xenograft tumors were established by injection of the corresponding tumor cells into the mammary fat pad (1:1 with Matrigel) of CB17 mice. […] Tumor volumes were measured three times a week. […]
JO-1 and JO-4 are virus-derived proteins and immunogenic. In immunocompetent mice, serum IgG antibodies against these proteins can be detected by ELISA two weeks after injection (5). […]

Molecule | Serum antibodies against the protein detectable by ELISA
B1 | ≥ 15 days
B2 | ≥ 15 days
